Measurements reported in the supplement of paper PMC10849652.
Some of the results follow.

Chains of the proteins cited; added tags and fusions are not shown. Lines headed by an entry give the natural chain unless they say otherwise; changes in a name come on top.
UniProt Q9H6K4: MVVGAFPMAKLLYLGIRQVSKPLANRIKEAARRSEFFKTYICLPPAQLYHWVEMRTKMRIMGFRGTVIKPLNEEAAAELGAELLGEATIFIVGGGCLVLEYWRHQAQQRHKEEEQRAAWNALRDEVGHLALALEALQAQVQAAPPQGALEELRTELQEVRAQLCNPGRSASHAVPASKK
UniProt O95989: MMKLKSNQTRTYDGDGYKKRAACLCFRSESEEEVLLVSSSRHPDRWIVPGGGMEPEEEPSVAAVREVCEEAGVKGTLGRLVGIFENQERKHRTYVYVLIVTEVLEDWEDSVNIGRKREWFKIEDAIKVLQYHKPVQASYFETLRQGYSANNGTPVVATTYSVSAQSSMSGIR
UniProt Q96MG7: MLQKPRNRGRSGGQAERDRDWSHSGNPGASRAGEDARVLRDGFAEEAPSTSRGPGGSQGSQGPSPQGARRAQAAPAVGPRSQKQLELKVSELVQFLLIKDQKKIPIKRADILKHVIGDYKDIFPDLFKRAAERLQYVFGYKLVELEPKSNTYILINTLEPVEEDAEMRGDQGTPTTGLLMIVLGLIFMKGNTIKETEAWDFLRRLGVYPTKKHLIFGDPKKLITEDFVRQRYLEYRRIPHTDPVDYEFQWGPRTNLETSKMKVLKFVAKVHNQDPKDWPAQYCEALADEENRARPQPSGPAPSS
UniProt Q7Z417: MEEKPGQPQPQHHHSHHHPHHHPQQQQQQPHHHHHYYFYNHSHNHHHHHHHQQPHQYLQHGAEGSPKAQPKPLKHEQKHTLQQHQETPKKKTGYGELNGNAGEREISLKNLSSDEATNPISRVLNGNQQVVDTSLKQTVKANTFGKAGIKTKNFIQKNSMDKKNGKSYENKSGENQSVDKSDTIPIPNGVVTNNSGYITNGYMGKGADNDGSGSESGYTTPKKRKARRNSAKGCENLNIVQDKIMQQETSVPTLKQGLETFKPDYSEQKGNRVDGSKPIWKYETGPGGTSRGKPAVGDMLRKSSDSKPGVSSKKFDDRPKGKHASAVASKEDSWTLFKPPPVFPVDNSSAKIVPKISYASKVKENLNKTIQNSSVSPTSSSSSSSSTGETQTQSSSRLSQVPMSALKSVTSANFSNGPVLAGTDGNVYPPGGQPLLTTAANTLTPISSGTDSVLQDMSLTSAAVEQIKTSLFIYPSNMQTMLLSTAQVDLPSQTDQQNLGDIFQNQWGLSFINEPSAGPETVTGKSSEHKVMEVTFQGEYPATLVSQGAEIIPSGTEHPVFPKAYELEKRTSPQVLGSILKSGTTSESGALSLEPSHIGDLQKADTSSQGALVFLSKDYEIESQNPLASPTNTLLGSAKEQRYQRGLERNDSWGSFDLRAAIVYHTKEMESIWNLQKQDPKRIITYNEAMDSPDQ
UniProt Q13438: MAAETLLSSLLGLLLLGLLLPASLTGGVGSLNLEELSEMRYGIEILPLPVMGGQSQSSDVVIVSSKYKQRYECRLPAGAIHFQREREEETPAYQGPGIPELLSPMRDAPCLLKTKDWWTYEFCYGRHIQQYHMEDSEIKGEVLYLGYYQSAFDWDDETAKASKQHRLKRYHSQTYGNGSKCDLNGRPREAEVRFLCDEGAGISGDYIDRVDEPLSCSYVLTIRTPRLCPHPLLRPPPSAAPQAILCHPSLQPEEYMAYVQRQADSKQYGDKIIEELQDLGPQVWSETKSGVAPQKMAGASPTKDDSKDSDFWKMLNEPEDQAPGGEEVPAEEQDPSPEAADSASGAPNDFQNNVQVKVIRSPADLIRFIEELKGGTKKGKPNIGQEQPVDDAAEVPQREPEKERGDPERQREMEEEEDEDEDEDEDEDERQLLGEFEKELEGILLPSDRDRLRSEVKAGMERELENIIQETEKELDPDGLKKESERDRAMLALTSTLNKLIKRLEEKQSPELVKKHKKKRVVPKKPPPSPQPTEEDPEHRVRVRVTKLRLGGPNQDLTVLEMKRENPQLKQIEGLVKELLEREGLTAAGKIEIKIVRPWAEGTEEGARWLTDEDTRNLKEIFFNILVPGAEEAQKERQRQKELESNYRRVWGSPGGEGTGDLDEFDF
UniProt Q8WV22: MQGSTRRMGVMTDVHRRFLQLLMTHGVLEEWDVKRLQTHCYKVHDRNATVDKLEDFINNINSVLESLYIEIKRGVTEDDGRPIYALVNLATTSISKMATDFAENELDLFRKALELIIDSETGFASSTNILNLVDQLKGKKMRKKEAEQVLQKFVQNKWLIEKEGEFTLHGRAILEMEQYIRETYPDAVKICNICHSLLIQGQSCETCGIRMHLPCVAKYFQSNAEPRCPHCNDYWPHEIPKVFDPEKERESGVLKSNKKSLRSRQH
UniProt P49902: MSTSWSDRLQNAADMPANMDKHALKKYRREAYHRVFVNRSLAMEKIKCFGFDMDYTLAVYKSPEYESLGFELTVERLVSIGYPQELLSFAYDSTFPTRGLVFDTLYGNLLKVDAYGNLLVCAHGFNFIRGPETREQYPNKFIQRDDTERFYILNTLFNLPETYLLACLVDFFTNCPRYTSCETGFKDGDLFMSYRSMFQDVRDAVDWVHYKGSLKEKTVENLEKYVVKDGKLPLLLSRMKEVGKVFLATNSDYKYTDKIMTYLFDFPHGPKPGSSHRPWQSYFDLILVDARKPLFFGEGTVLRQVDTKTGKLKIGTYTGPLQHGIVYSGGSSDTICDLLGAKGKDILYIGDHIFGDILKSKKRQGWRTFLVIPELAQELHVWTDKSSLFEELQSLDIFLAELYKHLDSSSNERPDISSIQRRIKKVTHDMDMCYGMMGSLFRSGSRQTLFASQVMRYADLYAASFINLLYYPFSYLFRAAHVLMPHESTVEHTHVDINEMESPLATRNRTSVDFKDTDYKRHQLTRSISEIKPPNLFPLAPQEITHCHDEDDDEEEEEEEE
UniProt Q8NE18: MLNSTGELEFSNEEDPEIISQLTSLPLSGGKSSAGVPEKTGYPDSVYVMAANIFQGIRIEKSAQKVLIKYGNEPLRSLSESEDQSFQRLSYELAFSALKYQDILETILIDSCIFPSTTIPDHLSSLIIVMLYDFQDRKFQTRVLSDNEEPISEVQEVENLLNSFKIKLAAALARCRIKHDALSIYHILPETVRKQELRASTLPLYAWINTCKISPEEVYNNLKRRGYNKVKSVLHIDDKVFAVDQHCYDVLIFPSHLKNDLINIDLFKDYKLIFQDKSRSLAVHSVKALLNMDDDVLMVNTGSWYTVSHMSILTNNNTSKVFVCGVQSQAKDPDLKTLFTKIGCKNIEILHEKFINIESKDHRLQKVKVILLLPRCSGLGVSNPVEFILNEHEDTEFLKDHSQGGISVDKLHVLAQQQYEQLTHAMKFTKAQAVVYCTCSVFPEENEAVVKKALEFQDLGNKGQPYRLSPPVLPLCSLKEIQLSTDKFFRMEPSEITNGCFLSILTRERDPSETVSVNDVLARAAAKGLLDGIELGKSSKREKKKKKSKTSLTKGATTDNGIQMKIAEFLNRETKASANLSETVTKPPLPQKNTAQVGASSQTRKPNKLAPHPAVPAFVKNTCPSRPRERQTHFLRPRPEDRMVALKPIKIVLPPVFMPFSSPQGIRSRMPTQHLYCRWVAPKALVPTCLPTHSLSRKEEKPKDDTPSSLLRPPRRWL
UniProt Q8TB37: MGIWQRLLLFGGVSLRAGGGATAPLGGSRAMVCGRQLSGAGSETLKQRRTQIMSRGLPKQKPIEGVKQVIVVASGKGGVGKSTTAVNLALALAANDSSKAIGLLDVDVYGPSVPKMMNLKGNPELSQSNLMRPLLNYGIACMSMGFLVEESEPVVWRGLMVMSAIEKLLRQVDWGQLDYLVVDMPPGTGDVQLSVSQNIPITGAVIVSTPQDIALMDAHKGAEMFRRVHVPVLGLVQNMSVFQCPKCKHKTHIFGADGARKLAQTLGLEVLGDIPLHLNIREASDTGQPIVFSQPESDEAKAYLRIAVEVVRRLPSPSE
UniProt Q96E52: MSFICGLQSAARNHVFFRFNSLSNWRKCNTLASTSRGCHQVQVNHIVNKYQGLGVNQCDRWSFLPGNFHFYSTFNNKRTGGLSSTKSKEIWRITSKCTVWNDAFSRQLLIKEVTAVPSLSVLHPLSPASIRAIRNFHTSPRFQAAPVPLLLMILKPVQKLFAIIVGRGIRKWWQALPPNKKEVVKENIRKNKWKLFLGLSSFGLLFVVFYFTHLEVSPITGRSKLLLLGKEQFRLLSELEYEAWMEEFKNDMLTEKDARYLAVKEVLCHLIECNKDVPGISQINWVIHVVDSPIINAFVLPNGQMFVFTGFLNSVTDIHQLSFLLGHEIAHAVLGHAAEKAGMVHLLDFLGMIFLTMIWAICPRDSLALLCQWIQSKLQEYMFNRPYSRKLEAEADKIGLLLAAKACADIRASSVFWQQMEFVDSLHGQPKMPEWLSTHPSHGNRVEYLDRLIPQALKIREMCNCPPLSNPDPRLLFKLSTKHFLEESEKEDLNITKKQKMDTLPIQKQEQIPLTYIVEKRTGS
UniProt P37198: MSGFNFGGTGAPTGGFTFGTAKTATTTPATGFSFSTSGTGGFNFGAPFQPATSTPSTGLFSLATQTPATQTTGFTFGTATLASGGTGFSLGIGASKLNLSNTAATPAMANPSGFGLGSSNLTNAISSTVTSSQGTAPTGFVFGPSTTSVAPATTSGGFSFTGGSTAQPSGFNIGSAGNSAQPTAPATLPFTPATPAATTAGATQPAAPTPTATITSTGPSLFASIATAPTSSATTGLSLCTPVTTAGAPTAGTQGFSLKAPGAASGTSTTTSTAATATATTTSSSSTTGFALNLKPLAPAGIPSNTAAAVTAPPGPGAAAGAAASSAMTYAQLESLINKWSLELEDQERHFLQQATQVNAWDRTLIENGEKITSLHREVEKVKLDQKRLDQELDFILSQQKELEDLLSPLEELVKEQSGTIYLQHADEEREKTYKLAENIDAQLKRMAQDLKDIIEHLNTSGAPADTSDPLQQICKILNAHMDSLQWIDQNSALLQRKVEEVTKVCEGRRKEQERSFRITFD
UniProt Q96RS6: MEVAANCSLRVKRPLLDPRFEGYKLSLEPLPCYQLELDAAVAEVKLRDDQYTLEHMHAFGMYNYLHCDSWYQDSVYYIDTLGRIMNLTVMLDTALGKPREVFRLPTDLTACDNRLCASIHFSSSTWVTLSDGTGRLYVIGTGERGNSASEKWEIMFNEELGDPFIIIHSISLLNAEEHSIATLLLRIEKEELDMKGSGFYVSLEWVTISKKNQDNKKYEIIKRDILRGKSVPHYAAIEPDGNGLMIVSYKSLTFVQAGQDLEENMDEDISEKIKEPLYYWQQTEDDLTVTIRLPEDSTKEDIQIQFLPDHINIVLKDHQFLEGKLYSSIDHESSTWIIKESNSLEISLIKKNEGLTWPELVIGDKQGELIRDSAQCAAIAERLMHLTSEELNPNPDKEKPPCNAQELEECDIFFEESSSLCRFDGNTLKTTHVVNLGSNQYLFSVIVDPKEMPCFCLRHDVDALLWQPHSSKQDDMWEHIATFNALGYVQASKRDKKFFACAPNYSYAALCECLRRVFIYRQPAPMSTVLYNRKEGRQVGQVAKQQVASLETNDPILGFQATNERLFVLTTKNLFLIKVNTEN
UniProt Q9BXS6: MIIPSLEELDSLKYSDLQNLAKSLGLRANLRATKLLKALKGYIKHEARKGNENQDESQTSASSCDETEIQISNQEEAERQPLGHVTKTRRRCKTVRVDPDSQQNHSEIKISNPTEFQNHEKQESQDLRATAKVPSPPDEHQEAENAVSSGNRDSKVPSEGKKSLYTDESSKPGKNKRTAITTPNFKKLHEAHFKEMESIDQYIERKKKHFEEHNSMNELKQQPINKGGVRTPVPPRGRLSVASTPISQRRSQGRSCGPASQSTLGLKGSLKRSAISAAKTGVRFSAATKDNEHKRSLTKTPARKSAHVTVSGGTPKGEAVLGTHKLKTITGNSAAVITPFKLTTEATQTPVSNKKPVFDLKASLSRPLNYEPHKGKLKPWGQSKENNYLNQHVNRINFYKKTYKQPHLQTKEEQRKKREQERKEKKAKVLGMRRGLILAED
UniProt Q96E22: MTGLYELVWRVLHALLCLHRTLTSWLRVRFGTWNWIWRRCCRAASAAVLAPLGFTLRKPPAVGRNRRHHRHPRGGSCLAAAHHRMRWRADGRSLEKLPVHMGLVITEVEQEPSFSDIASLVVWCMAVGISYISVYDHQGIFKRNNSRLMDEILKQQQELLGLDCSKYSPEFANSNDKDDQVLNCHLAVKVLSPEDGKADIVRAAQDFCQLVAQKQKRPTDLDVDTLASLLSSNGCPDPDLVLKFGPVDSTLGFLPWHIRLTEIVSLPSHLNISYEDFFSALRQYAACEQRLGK
UniProt Q9Y5Y2: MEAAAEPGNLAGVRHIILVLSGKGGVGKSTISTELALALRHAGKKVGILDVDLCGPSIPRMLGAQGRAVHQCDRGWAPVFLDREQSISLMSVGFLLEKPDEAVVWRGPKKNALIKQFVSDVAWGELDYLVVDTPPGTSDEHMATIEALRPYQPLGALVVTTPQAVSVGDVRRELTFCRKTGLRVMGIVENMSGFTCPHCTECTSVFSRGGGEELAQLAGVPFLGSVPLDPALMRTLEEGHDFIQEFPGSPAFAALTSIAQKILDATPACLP

Compound: c1cn2cc(-c3ccc4cn[nH]c4c3)nc(Nc3ccc(N4CCOCC4)cc3)c2n1 [entospletinib]
Assay: log2 fold change, soluble protein after heating vs DMSO (PISA); higher = thermal stabilisation; K562 cells, 10 uM, 30 min; active = over 0.2 and 3.5 SD of the protein, either way, in both replicates (recomputed)
Method in brief: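 K562 cells at 2×10^6 cells/mL were treated for 30 min with 10 μM compound, and aliquots were heated for 3 min over 48°C-58°C before pooling. Extraction used PBS with 0.5% NP-40 at 4°C, and soluble protein was the supernatant after 21,000xg for 90 min, measured by TMTpro 16plex LC-MS/MS with channel sums equalised. Thermal stability values, relative to control samples and from duplicates, are log2 fold changes.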

Target | log2 fold change
OCIAD1 (UniProt D6RDK6) | inactive: -0.017
NUP133 (UniProt Q8WUM0) | inactive: 0.077
OSBPL9 (UniProt Q96SU4) | inactive: 0.114
ODR4 (UniProt Q5SWX8) | inactive: 0.015
OSTF1 (UniProt Q92882) | inactive: 0.073
ORAI1 (UniProt Q96D31) | inactive: -0.15
NUP35 (UniProt Q8NFH5) | inactive: 0.007
OPA3 (UniProt Q9H6K4) | inactive: 0.035
ORC2 (UniProt Q13416) | inactive: -0.044
NUDT3 (UniProt O95989) | inactive: -0.002
NUP93 (UniProt Q8N1F7) | inactive: -0.009
NSMCE3 (UniProt Q96MG7) | inactive: -0.007
NUDT19 (UniProt A8MXV4) | inactive: -0.003
OGDH (UniProt Q02218) | inactive: 0.031
NUDT8 (UniProt Q8WV74) | inactive: 0.054
NUFIP2 (UniProt Q7Z417) | inactive: 0.094

Retrieved one by one from the list above, two records:
Target | log2 fold change
OPA3 (UniProt Q9H6K4) | inactive: 0.035
NUDT19 (UniProt A8MXV4) | inactive: -0.003

Further entries follow:

Target | log2 fold change
NSRP1 (UniProt Q9H0G5) | inactive: 0.08
NUDCD3 (UniProt Q8IVD9) | inactive: 0.019
NUDT5 (UniProt Q9UKK9) | inactive: -0.017
OTUD7B (UniProt Q6GQQ9) | inactive: -0.111
OS9 (UniProt Q13438) | inactive: 0.043
NSMCE1 (UniProt Q8WV22) | inactive: 0.033
NT5C2 (UniProt P49902) | inactive: -0.07
NSUN7 (UniProt Q8NE18) | inactive: 0.099
NUBPL (UniProt Q8TB37) | inactive: -0.062
OMA1 (UniProt Q96E52) | inactive: -0.028
NUP62 (UniProt P37198) | inactive: -0.003
NUDCD1 (UniProt Q96RS6) | inactive: -0.016
NUSAP1 (UniProt Q9BXS6) | inactive: -0.006
NUS1 (UniProt Q96E22) | inactive: -0.037
NUBP2 (UniProt Q9Y5Y2) | inactive: -0.006
